Consider 2 molecules from patent US20260184815A1.

By UniProt entry, the sequences of proteins in these tests, tags left out. Where a name states a change or a piece, a line headed by the entry shows the natural chain unless it says otherwise.
UniProt P03952: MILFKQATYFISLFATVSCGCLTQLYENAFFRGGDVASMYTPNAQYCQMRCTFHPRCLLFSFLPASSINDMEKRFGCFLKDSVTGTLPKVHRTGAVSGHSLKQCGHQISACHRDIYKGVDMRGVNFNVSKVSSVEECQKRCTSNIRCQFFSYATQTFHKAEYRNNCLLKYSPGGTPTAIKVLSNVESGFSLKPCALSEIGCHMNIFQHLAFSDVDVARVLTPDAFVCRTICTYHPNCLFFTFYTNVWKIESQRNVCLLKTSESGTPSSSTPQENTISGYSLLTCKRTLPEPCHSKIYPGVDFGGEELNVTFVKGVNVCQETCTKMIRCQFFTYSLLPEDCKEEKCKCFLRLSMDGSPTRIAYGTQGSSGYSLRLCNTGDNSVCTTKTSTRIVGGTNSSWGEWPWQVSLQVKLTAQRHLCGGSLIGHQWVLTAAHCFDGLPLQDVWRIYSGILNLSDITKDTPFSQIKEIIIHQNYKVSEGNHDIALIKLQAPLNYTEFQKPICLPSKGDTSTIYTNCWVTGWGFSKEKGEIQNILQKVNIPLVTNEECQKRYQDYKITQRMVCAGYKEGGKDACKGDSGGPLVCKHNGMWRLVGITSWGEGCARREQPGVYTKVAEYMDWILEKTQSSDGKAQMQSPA

The target in test [1] is human plasma kallikrein (human) (UniProt P03952). Description: complex formed for the BIACORE SPR competition.
The target is the same in test [2]. Description: steady state enzyme kinetics, IgG.

No constants are given. Whether binding was seen depends on the method and setting. Some results given as binding are weak or reduced against the parent protein; the word gives no strength.

B1: EPI-KAL2 (designed binder)
chain: EAMHSFCAFKADDGPCRAAHPRWFFNIFTRQCEEFSYGGCGGNQNRFESLEECKKMCTRD
With B1, in test [1], the binding entry is listed as “binds”.

B2: X67-C03 (antibody, human IgG1, V domains shown)
VH: EVQLLESGGGLVQPGGSLRLSCAASGFTFSAYSMIWVRQAPGKGLEWVSYIRPSGGRTTYADSVKGRFTISRDNSKNTLYLQMNSLRAEDTAVYYCARGGLLLWMRELKSNYFDYWGQGTLVTVSS
VL: DIQMTQSPSSLSAFVGDRVTITCRASQPIDNYLNWYHQKPGKAPKLLIYAASRLQSGVPSRLSGSGFGTDFTLTISSLQPEDFGNYYCQQSYTVPYTFGGGTKVEIR
Regarding B2, the binding result in test [2] was “binds”.
